The text below walks through data of paper PMC3105080.

These are yes or no findings as the source states them, for the method shown. Binding seen in cells or lysates may run through a third protein. Some results given as binding are weak or reduced against the parent protein; the word gives no strength. Where a sequence is shown, tags or fusion partners need not be part of it.

The target of the assay is T1, otoconin-90 (Oc90), full-length, FLAG-tagged (mouse) (UniProt Q9Z0L3).
T1 sequence: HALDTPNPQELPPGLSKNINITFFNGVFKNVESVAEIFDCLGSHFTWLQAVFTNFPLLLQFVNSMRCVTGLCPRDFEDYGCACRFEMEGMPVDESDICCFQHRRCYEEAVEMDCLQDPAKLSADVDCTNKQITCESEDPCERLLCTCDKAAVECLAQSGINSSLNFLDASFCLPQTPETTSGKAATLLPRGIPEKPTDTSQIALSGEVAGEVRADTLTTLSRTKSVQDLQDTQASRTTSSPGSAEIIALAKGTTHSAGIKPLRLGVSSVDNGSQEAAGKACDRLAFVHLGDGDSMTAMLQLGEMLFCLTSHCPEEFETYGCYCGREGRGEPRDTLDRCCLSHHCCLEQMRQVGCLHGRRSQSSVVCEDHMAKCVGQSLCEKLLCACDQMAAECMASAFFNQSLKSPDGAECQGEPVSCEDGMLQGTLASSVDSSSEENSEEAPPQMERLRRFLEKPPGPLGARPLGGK
Nature of the assay: co-IP; HEK293 cells co-transfected with Oc90-FLAG and otolin or its domains; lysed in hypotonic buffer (10 mM Tris-HCl pH 7.5, 10 mM NaCl, 2 mM EDTA, 0.5% Triton-X-100), then 150 mM NaCl; anti-FLAG M2 beads 6 h at 4°C, washed 3 times with TBS; Western blot with otolin and Oc90 antibodies.

B1: otolin-TH domain construct (residues 1-342) (domain or fragment, UniProt Q4ZJM7 24-342)
chain: KTTPYTKFTKKSEGKEMLKGLKPSSGFFLDGEETVHTETAAMAEPTTGSPALAMAESTAGPSASATTRLLPFESFSLDTTGFVLNCCHCCSFVTGQKGEPGKMGKQGPKGETGDTGSPGHPGTTGPQGPKGQKGEKGLKGDRGDQGAGGIPGYPGKPGEQGALGPKGDKGTIGPAGTKGQKGSKGELCGNGTKGEKGDPGASGAHGFIGEPGAKGEKGGVGEKGYRGDLGERGEKGQKGEKGMEGEKGSRGDVGSEGKRGSDGLPGLRGDSGPKGEKGEIGSPGFTGPAGPKGELGSKGVRGPTGKKGSRGVKGSKGEA
In the case of B1, the binding result is “binds”.

B2: otolin-C1q domain construct (residues 1-60 fused with residues 343-482) (domain or fragment, UniProt Q4ZJM7 24-60; Q4ZJM7 343-482)
chain: KTTPYTKFTKKSEGKEMLKGLKPSSGFFLDGEETVHTTQVPQSAFSALLSKPFPPPNVPIKFDKILSNDQGDYSPVTGKFNCSVPGTYIFSYHVTVRGRPARISLVARNRKQFKSRETLYGQQVDQASLLLILKLSAGDQVWLEVSKDWNGLYVGPEDDSIFSGFLLYPEETFSKSP
B2: the binding result is “binds”.
